We go through one compound from patent US11202789B2, “Method of treating glycogen storage disease” (Viking Therapeutics, Inc., priority 2016, dated 2021).

Each structure is given as a SMILES string.

For this data set, the system named is male Zucker Diabetic fatty (ZDF) rats. Put plainly: 4-week (28 days) efficacy and safety study in male Zucker Diabetic fatty (ZDF) rats. The data set is classed as in vivo. The method, then: Objectives: The objective of the study was to evaluate the efficacy and safety of Compound 2 treatment for 4 weeks in male Zucker Diabetic fatty (ZDF) rats. Total plasma cholesterol, blood glucose levels, liver and muscle glycogen levels, and a plasma clinical chemistry were evaluated. Additionally, histological and biochemical assessments of hepatic steatosis were performed post-mortem. MB07875, a known human thyroid hormone receptor ligand, was included as a comparator in these studies.
Methods: Eight-week old male ZDF rats (n=5/group) were treated orally with Compound 2 or MB07875 for 28 days. The doses of Compound 2 [in 0.5% carboxymethylcellulose (CMC)] were 0.25, 0.5, 1, 2.5, 5, 15 and 50 mg/kg/day. The dose of MB07875 (in 0.5% CMC) was 0.2 mg/kg/day. Body weight was assessed just prior to treatment and at 24 hours following the last dose. Total plasma cholesterol and blood glucose were measured on a weekly basis. […] In addition, the liver was removed and weighed, and a portion freeze-clamped for glycogen and triglyceride analysis. Another portion was placed in 10% neutral buffered formalin for hematoxalin and eosin (H & E) staining. Finally, the heart was excised and weighed.

In the case of `Cc1cc(OCP2(=O)OCCC(c3cccc(Cl)c3)O2)cc(C)c1Cc1ccc(O)c(C(C)C)c1` (centres unmarked) [Compound 2], the “free fatty acid levels” value (Compound 2 0.25-50 mg/kg/day oral) is listed as “unaffected”. Under “doses of 1 mg/kg/day and above, oral”, the plasma insulin levels entry is “tended to be higher”.
